No constants are given. Whether binding was seen depends on the method and setting. In cells and extracts the contact can be indirect. Some entries that bind do so weakly or less than the wild type.

The chains behind the UniProt entries cited, without tags or fusion partners.
UniProt Q8VBV3: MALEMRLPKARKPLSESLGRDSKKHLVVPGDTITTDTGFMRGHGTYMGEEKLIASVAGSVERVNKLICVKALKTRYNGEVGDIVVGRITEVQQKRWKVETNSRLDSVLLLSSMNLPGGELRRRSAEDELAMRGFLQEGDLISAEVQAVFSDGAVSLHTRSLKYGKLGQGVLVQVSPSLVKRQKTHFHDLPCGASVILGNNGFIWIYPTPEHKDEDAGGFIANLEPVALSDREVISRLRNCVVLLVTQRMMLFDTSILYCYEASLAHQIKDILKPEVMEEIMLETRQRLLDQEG
UniProt Q8C0S1: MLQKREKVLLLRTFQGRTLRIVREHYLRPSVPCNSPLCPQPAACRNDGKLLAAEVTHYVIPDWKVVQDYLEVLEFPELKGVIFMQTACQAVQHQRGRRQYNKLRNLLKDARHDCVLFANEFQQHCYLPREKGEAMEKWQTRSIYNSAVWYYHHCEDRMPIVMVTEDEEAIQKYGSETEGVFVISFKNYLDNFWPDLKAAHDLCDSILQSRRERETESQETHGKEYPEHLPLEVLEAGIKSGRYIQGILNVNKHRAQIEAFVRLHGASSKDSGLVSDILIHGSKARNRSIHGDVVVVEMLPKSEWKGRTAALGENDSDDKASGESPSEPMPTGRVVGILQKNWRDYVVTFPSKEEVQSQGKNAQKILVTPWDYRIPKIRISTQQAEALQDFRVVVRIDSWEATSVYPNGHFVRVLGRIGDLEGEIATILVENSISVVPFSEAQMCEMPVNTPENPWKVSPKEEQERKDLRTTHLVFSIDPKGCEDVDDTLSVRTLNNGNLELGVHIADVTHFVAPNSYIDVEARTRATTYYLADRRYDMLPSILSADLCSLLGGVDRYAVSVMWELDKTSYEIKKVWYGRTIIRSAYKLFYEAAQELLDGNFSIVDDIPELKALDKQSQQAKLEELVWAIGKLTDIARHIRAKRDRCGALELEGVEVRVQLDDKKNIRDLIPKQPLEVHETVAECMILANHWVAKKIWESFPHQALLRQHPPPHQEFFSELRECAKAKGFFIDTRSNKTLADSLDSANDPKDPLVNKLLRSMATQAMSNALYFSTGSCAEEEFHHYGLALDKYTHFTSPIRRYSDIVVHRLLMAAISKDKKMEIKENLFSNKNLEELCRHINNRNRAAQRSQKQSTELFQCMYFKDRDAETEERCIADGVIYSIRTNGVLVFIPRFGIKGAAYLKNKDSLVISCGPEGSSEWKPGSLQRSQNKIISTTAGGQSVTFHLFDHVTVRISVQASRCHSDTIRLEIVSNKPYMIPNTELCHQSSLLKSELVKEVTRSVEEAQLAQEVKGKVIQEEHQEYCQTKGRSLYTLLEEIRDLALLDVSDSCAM
UniProt Q7TQK4: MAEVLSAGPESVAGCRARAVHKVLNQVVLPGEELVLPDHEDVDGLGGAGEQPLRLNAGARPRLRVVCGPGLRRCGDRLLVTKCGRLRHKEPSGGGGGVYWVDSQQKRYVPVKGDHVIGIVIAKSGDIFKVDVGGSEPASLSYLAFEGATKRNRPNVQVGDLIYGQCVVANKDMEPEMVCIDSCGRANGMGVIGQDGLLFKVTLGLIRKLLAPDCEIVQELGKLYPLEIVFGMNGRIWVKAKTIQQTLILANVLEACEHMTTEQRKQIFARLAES
UniProt Q921I9: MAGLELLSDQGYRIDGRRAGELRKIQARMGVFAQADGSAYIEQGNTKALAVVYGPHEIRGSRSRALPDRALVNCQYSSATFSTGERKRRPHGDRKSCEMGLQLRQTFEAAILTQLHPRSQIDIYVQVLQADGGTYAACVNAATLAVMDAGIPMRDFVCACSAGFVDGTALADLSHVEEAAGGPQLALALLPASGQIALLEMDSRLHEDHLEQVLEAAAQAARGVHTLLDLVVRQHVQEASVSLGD
UniProt Q8BTW3: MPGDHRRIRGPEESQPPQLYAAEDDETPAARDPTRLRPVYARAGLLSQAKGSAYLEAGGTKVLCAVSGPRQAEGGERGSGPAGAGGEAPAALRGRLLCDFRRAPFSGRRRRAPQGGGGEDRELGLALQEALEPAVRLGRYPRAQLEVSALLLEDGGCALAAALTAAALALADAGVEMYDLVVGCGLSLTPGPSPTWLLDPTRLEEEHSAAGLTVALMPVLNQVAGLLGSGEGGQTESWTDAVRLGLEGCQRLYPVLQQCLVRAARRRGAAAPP
UniProt Q9D0M0: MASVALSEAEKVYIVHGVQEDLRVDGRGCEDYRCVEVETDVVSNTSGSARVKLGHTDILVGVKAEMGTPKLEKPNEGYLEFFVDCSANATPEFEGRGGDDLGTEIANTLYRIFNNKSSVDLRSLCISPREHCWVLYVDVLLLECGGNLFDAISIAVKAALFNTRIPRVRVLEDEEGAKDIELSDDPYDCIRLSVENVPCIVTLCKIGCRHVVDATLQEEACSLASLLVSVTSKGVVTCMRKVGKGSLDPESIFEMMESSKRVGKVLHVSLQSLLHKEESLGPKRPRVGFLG
UniProt Q9D753: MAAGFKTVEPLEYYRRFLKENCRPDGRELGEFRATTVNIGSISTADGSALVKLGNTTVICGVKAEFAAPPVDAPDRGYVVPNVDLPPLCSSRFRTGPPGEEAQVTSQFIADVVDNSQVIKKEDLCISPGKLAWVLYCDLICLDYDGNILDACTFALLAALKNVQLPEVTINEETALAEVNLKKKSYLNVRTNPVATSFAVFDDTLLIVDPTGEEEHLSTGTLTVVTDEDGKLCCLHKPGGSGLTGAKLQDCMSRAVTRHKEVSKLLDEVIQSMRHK
UniProt Q9JHI7: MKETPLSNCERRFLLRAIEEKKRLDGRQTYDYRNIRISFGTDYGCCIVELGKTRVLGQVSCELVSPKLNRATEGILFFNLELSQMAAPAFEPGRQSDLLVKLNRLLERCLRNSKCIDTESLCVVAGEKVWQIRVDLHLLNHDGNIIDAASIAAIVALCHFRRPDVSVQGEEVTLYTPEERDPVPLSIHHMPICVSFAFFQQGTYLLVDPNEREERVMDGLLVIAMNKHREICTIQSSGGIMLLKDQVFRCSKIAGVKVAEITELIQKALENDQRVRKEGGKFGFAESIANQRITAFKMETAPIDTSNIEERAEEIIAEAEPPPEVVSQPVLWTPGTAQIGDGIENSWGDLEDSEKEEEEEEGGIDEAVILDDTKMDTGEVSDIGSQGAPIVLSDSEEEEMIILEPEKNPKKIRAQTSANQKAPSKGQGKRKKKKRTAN

The record followed here is article doi:10.1101/2025.03.14.643291.

The chains are these.
B1: Exosc10 (enzyme, UniProt P56960 1-887)
chain: MAPPSPREHQSAPATSATKPDAEMVLPGFPDADSFVKFALGSVVAVTKASGGLPQFGDEYDFYRSFPAFQAFCETQGDRLLQCMSRVMQYHGCRSNIKDRSKVTELEDKFDLLVDTNDVILERVGMLLDEASGVNKHQQPVLPAGLQVPKTIVSSWNRKAGEYGKKAKSETFRLLHAKNIVRPQLRFREKIDNSNTPFLPKIFVKPNARKPLPLALSKERRERPQDRPEDLDVPPALADFIHQQRTQQVEQDMFAHPYQYELDHFTPPQSVLQRPKPQLYRAVGETPCHLVSSLDELVELNEKLLGCQEFAVDLEHHSYRSFLGLTCLMQISTRTEDFIVDTLELRSDMYILNESLTDPAIVKVFHGADSDIEWLQKDFGLYVVNMFDTHQAARLLNLARHSLDHLLRLYCGVESNKQYQLADWRIRPLPEEMLSYARDDTHYLLYIYDRMRLELWERGNHQPVQLQVVWQRSRDICLKKFVKPIFTDESYLELYRKQKKHLNSQQLTAFQLLFAWRDKTARREDESYGYVLPNHMMLKIAEELPKEPQGIIACCNPVPPLVRQQINEMHLLIQQAREMPLLKSENAAGVRKSGPLPSAERLENDLFGPHDCSHAPPDNYQNTSTDGTLPLQKQPSLFTEGKEETSVDAGCLLATAVITLFSEPNTEEGGKTPLTVAQKKAQNIMQSFENPFRMFLPSLEHKAHISQAAKFDPSSKIYEISNRWKLASQVQVQKEPKEATKKKVAEQTAAREEAKEEAAAGVLEQAIPVRQQAALENATKKRERATSDLRTIEQKQEKKRLKSSKKAKDPDPPGKDFSPYDYSQSDFRAFAGDSKSKPSSQFDPNKLAPSGKKGVGAKKCKQSVGNKSMSFAVGKSDRGFRHNWPKR
B2: Dis3 (enzyme, UniProt Q9CSH3 1-958)
chain: MLRSKTFLKKTRAGGVVKIVREHYLRDDIGCGAPACSACGGAHAGPALELQPRDQASSLCPWPHYLLPDTNVLLHQIDVLEHPAIRNVIVLQTVMQEVRNRSAPIYKRIRDVTNNQEKHFYTFTNEHHKETYIEQEQGENANDRNDRAIRVAAKWYNEHLKRVAADSQLQVILITNDRKNKEKAVQEGIPAFTCEEYVKSLTANPELIDRLAYLSDEMNEIESGKIIFSEHLPLSKLQQGIKSGSYLQGTFRASRENYLEATVWIHGDKEEEKEILIQGIKHLNRAVHEDIVAVELLPRSQWVAPSSVVLDDEGQNEDDVEKDEERELLLKTAVSEKMLRPTGRVVGIIKRNWRPYCGMLSKSDIKESRRHLFTPADKRIPRIRIETRQASALEGRRIIVAIDGWPRNSRYPNGHFVKNLGDVGEKETETEVLLLEHDVPHQPFSQAVLSFLPRMPWSITEEDMKNREDLRHLCVCSVDPPGCTDIDDALHCRELSNGNLEVGVHIADVSHFIRPGNALDQESARRGTTVYLCEKRIDMVPELLSSNLCSLRSNVDRLAFSCIWEMNHNAEILKTRFTKSVINSKASLTYAEAQMRIDSAAMNDDITTSLRGLNQLAKILKKGRIEKGALTLSSPEIRFHMDSETHDPIDLQTKELRETNSMVEEFMLLANISVAKKIHEEFSEHALLRKHPAPPPSNYDILVKAAKSKNLQIKTDTAKSLADSLDRAESPDFPYLNTLLRILATRCMMQAVYFCSGMDNDFHHYGLASPIYTHFTSPIRRYADIIVHRLLAVAIGADCTYPELTDKHKLSDICKNLNFRHKMAQYAQRASVAFHTQLFFKSKGIVSEEAYILFVRKNAIVVLIPKYGLEGTVFFEEKDKPKPRLAYDDEIPSLRIEGTVFHVFDKVKVKITLDSSNLQHQKIRMALVEPQIPGINIPPNVADKALTAPGGKKRKLEK

One test has as its target Exosc2-mCherry-V5 (mouse) (UniProt Q8VBV3). Description: co-IP.
With “Dis3L (from UniProt Q8C0S1 1-1053) (enzyme)”, the binding result is on record as “binds”.
On the same count and under the same terms, next, Exosc1 (from UniProt Q9DAA6-1 1-195): “binds”; Exosc3 (from UniProt Q7TQK4 1-274): “binds”.
Still for that read-out and setting: next, Exosc4 (from UniProt Q921I9 1-245): “binds”; Exosc6 (from UniProt Q8BTW3 1-273): “binds”; Exosc7 (from UniProt Q9D0M0 1-291): “binds”.
The same measure, in the same setting: under Exosc8 (from UniProt Q9D753 1-276) stands “binds”; under Exosc9 (from UniProt Q9JHI7 1-438), “binds”.

Another test has the same target. The test is described as follows: co-IP. This is another data set of the same source.
Turning to B1, the binding result was “binds”.
Same read-out and setting: next, B2: “binds weakly”.
